Structures can show the parent of a compound that is named as a salt. Where two headings read alike, the source gives them in different places.
Assay: Fluorescent coating of hydroxyapatite

Compound: O=P(O)(O)Cn1c2ccccc2c2ccccc21 [Example 7, N-carbazoylymethylphosphonic acid]
- fluorescent layer on hydroxyapatite (aqueous solution 100 μM applied with warm air drying, powder or annealed hydroxyapatite, washed with water): A fluorescent layer had been deposited on the surface

Compound: O=P([O-])([O-])Cn1c2ccccc2c2ccccc21.[Na+].[Na+] [di sodium N-carbazolylmethylphosphonate]
- fluorescent coating on hydroxyapatite: fluorescent coating had been applied

Compound: O=P(O)(O)COc1ccc(-c2c3nc(c(-c4ccc(OCP(=O)(O)O)cc4)c4ccc([nH]4)c(-c4ccc(OCP(=O)(O)O)cc4)c4nc(c(-c5ccc(OCP(=O)(O)O)cc5)c5ccc2[nH]5)C=C4)C=C3)cc1 [octa-sodium salt of Example 29, 5, 10, 15, 20-tetraphenyl-21H, 24H porphine-p,p′,p″,p′″tetra oxymethanophosphonic acid]
- fluorescent coating on hydroxyapatite (5 ml, 1 mM solution, hydroxyapatite 100 mg, room temperature 10 h, washed with water): fluorescent coating had been applied
